Measurements taken from publication doi:10.1101/844126.
These are yes or no findings as the source states them, for the method shown. Some entries that bind do so weakly or less than the wild type.

Biological target: T1, Splicing Factor Proline- and Glutamine- rich protein (SFPQ), truncated, residues 276 to 535 (human) (UniProt P23246)
T1 sequence: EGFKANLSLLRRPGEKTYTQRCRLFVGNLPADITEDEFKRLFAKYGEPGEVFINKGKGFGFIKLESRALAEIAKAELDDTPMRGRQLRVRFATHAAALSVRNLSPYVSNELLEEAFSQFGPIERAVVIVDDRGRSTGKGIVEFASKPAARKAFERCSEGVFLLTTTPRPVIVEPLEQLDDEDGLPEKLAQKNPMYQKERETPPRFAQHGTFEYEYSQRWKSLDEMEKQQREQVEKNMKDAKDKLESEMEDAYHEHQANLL
Assay: co-purification

B1: ParaSpeckle Protein Component 1 (PSPC1), truncated, amino acids 53 to 320 (domain or fragment, UniProt Q8WXF1 53-320)
chain: PEDHPDEEMGFTIDIKSFLKPGEKTYTQRCRLFVGNLPTDITEEDFKRLFERYGEPSEVFINRDRGFGFIRLESRTLAEIAKAELDGTILKSRPLRIRFATHGAALTVKNLSPVVSNELLEQAFSQFGPVEKAVVVVDDRGRATGKGFVEFAAKPPARKALERCGDGAFLLTTTPRPVIVEPMEQFDDEDGLPEKLMQKTQQYHKEREQPPRFAQPGTFEFEYASRWKALDEMEKQQREQVDRNIREAKEKLEAEMEAARHEHQLMLM
binding: binds
